This is an account of results in patent publication US20210322508A1, “PEPTIDES AND COMPOSITIONS FOR TARGETED TREATMENT AND IMAGING” (SIGNABLOK, INC., priority 2018, published 2021).

Test [1] addresses T1, TREM-1 (triggering receptor expressed on myeloid cells-1) on murine J774A.1 macrophages (mouse) (UniProt Q9JKE2).
T1 sequence (looked up): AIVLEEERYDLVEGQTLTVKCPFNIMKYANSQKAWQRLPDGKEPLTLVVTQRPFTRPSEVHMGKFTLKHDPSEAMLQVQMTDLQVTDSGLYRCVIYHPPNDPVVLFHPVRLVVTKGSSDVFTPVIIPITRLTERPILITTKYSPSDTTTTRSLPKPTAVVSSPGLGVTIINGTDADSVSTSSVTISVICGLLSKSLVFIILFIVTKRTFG
Nature of the test: confocal immunofluorescence on J774A.1 macrophages; DyLight 488-labelled G-KV21 pre-incubated with HDL against Alexa 647 rat anti-mouse TREM-1 antibody; colocalisation only, no direct binding assay.

Test [2] deals with T1, TREM-1 (triggering receptor expressed on myeloid cells-1) on murine J774A.1 macrophages (mouse). Nature of the test: confocal immunofluorescence on J774 macrophages, labelled peptide against TREM-1 immunostaining; colocalisation only, no direct binding assay.

Results are given in words; binding and its absence hold for the method and conditions named. Some binding calls cover weakened binding; strength is not graded here.

B1: TREM-1-related trifunctional peptide (TREM-1/TRIOPEP) G-KV21, sulfoxidized methionine residue-containing (peptide)
peptide: GFLSKSLVFWQEEMELYRQKV
modifications: sulfoxidized methionine residue (the single Met)
For the molecule B1, the binding result in test [1] and in test [2] was “binds” throughout.
